Test results from PubChem BioAssay (EPA / NIEHS).
Where “and” joins values, the source holds several entries; their conditions need not be identical. Identical values can stand only once. This list was built around the results that the source calls inconclusive (neither active nor inactive); the mix of calls is not that of the screen. Where the call is inconclusive, the potency comes from a doubtful curve fit. Where a structure was tested more than once in an assay, its records may differ in their call. Calls of active or inactive are those of the source. The calls were made as follows: active = hit-call score of the fitted dose curve at least 0.9, where 1 is the maximum; inconclusive = response in the unintended direction; inactive = score below 0.9.

Sequences of proteins named here, by UniProt entry; tags and fusion partners are left off.
UniProt P19785, whole entry, looked up: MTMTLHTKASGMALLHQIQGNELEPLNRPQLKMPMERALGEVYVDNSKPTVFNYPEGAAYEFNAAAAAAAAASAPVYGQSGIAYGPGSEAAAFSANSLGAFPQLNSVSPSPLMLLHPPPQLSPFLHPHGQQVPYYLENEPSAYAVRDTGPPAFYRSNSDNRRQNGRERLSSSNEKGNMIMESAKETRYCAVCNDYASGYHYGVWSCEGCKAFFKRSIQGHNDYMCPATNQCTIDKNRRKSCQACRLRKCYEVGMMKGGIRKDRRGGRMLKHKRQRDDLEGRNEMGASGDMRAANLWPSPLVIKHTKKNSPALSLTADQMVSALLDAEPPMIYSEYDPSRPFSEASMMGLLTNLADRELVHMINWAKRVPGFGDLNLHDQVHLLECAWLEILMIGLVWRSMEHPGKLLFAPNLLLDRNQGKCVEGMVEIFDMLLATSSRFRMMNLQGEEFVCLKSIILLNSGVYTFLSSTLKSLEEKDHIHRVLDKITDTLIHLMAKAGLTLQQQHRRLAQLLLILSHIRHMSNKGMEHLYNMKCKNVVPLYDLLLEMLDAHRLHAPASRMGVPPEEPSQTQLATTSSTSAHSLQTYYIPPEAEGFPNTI

Molecular target: mouse Estrogen Receptor alpha (Era), Esr1 (gene 13982) (UniProt P19785)
Assay: NVS_NR_mERa: NovaScreen (NVS) Nuclear Receptor Binding Assay for mouse Estrogen Receptor alpha (Era) (AID 2283378);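 also: hit means loss of bound radioligand signal relative to DMSO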
How it was run: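 Cell-free radioligand competitive displacement binding, read by filter-based scintillation counting 18 h after dosing. Primary screen run in duplicate at 25 uM, actives retested in concentration series; loss of signal versus DMSO.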

What does the source list for CON(C)C(=O)Nc1ccc(Cl)c(Cl)c1?
AC50: inconclusive: 46.1 µM; outcome: inactive

How did the AC50 turn out when CC(C)(c1ccccc1)c1ccc(O)cc1 was run?
Its AC50 is inconclusive: 25 µM and active: 2.98 µM and active: 11 µM.

How did the AC50 turn out when O=C(Nc1ccc2[nH]ccc2c1)c1cc2cc(F)ccc2n1Cc1cccc(F)c1 was run?
The AC50 was inconclusive: 25 µM.

How did the AC50 turn out when CCc1nn(C)c(C(=O)NCc2ccc(C(C)(C)C)cc2)c1Cl was run?
The AC50 was inconclusive: 0.691 µM.

CCC(C)c1cc([N+](=O)[O-])cc([N+](=O)[O-])c1O (stereo not drawn) was tested. Which AC50 did it give?
Its AC50 is inconclusive: 25 µM.

For O=[N+]([O-])c1ccc(Cl)c([N+](=O)[O-])c1, which AC50 is on record?
Its AC50 is inconclusive: 25 µM.

With CC(=O)[O][Hg][c]1ccccc1 as the compound, how does the AC50 read?
The AC50 was inconclusive: 25 µM.

O=S1(=O)OC(c2cc(Br)c(O)c(Br)c2)(c2cc(Br)c(O)c(Br)c2)c2ccccc21 was tested. Which outcome did it give?
The outcome was “inactive”.

Cc1cc(-c2ccc(N)c(C)c2)ccc1N was tested. Which AC50 did it give?
Its AC50 is active: 0.999 µM.

What about the outcome of the same compound?
The outcome was “inactive”.

Which outcome does the source give for CCCCCCCCOC(=O)c1ccccc1C(=O)OCCCCCCCC here?
Its outcome is “inactive”.

How did the AC50 turn out when COP(=O)(OC)OC(Br)C(Cl)(Cl)Br (stereo not drawn) was run?
Its AC50 is inconclusive: 25 µM.

Which outcome does the source give for COC(=O)NC(=S)Nc1ccccc1NC(=S)NC(=O)OC here?
Its outcome is “inactive”.

How did the AC50 turn out when CCC(C)(C)c1ccc(O)cc1 was run?
Its AC50 is active: 25 µM.

With CCCCCCCc1ccc(O)cc1 as the compound, how does the AC50 read?
Its AC50 is active: 4.96 µM and inconclusive: 282 nM and active: 14.5 µM.

How did the AC50 turn out when C=C(C)C(=O)[O][Sn]([CH2]CCC)([CH2]CCC)[CH2]CCC was run?
The AC50 was active: 9.68 µM.

C[C@H]1CCCC(=O)CCC/C=C/c2cc(O)cc(O)c2C(=O)O1 was tested. Which AC50 did it give?
Its AC50 is inconclusive: 9.9 µM.
